Results are given in words; binding and its absence hold for the method and conditions named. Some binding calls cover weakened binding; strength is not graded here.

For the experiment, the target named is T1, Rad23 ortholog in the fly (Drosophila melanogaster) (UniProt Q9V3W9).
T1 sequence: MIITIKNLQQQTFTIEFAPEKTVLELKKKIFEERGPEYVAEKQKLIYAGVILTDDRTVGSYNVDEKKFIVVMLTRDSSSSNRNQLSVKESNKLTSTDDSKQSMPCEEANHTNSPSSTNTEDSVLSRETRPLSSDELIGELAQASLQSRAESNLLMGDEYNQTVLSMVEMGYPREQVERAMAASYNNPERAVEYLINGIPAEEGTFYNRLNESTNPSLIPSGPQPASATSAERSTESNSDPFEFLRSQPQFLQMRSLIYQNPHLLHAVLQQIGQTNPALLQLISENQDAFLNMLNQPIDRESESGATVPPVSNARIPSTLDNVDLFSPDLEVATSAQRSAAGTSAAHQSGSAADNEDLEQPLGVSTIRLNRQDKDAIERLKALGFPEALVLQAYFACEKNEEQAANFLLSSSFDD
As to the kind of experiment: two-hybrid; yeast two-hybrid assay; data not shown; bait and prey not told.

B1: PNGase-like (Pngl), Drosophila melanogaster PNGase ortholog (protein, UniProt Q7KRR5 1-631)
chain: MVDINLECVHQIEPKTRSAGQQQQERGLKEAYLEAVRILLVLLENILAQPENSMFRTIRQENKAIKEKLLSLPGCERLLEAIGFVRAPSSNAYTLPTEVSLQQVKKYRDALSERRTAWLNGTVSKSPPQQSTTSTTPLFIKPSVEYRHRIAFPRVLRTNNNFLQSLELYSDAVMQYEDNLLLATGRTLIPVEELTEMASEKLIDIQDQIASGERQEKEPCVRDLLLVELVNWFNTQFFQWVNNIPCRVCGSEESRLRRTEREGDIRVEVTVCCGQESKFYRYNDISQLLVSRKGRCGEYANCFTFLCRALDYDARIVHSHFDHVWTEVYSEAQMRWLHVDPSENVIDSPLMYQHGWKRHIDYILAYSRDDIQDVTWRYTNDHQKILHLRKLCGEKEMVQTLDAIRAKRRQNCTADRKLFLSQRNMYEVIGLTLERKPTENELKGRSSGSLSWRQSRGEHTFTNIFVFNLSATELQKRQLNVRYSCATDTYERYAKEGEHITILDSYKTWQKAQFSSKNIFRKVERDWKMAYLARLEDTDCGEIAWTFDFSKTNLKVKSYNLVFETKTFGDGKISVTVDATDGSASVENATGFKIVAKLTGGKGDVAWQHTQLFRQSLNSRDYPFDLQVQLH
With B1, the binding entry is listed as “binds”.

(Values after article PMC2866665.)
